# Library screening results

The chains behind the UniProt entries cited, without tags or fusion partners.
UniProt E9BF75, entry or part of it: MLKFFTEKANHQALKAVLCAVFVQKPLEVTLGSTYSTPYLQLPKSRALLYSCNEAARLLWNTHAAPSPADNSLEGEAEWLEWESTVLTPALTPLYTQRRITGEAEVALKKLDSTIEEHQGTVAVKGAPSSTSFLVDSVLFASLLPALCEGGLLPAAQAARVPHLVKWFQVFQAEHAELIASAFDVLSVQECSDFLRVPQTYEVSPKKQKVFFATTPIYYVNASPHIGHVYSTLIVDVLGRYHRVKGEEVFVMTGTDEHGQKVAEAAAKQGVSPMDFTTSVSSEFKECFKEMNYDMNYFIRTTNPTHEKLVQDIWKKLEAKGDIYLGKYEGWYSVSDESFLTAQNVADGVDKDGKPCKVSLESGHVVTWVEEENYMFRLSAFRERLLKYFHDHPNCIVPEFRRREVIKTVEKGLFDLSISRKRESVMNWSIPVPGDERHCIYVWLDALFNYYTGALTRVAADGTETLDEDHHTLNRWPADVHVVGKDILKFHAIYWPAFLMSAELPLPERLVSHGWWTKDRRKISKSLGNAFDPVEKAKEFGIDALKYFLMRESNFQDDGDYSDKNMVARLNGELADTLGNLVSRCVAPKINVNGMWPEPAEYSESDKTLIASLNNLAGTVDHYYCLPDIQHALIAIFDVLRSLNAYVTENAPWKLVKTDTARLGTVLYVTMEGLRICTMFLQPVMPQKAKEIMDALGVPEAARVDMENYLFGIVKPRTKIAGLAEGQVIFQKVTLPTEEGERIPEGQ

Mtb heat-shock: 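Assay on Mycobacterium tuberculosis, filed only as a heat shock assay from Cornell; the read-out is not stated. The concentration is filed as 10 mM, unlikely as a test dose, so the dose is not known. The record gives no direction; compounds that gave an IC50 in retests scored well above the rest, so higher reads as stronger inhibition. Of about 69,000 compounds tested this way, about 930 (1.4%) reached 50% or more in at least one test.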
LdMetRS: 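Primary screen of methionyl-tRNA synthetase; the read-out is not stated. Target: Methionyl-tRNA synthetase (putative), Leishmania donovani (UniProt E9BF75). The test concentration is not given. Values are per cent inhibition. Of about 68,000 compounds tested this way, about 24 (0.035%) reached 50% or more in at least one test.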

Results are percentages, as filed.
How 0% and 100% were set is not recorded. Most values in the screen are low, and negative values occur.
Compounds were drawn at random from those tested, without regard to their results.
A dash means the value is not listed here; it may have been measured.

SMILES | Mtb heat-shock | LdMetRS
Cc1cnc(N2CCCC(c3ccccc3)C2)nc1-c1ncnn1C (centres unmarked) | 3.837% | 15.84%
[H][C@]12CCN(Cc3ccco3)[C@@]1([H])CC[C@H](COCc1ccncc1)O2 | -4.969% | -
c1cnc(NCc2noc3c2CN(c2cnccn2)CC3)nc1 | 4.926% | 8.743%
C=C(C)CN1CCN(Cc2nccn2C)C(C)C1 (centres unmarked) | -50.04% | 11.75%
COc1cccc(C(C)Nc2ncnc3c2NC(=O)CN3)c1 (centres unmarked) | -4.6% | 5.949%
CC(=O)c1c(C)nn(CC(=O)Nc2ccc(F)cc2)c1C | 21.2% | 2.878%
Cc1cc(C)n(C2CCCN(C(=O)c3c[nH]c(=O)c(Cl)c3)C2)n1 (centres unmarked) | -1.508% | 7.216%
COc1cc(N2CC[C@@H]3OCCN(C)[C@H]3CC2)ncn1 | - | 17.66%
COCCC(=O)N1CCC2(CCN(Cc3ccc(OC)c(F)c3)C2)C1 (centres unmarked) | 0.4483% | 11.38%
Cc1cc(C2CCCN(CCc3ccc4c(c3)CCO4)C2)n[nH]1 (centres unmarked) | -18.22% | 4.334%
NC(=O)C1CCN(CCCNC(=O)Nc2nccs2)CC1 | -3.88% | 17.96%
CCc1ccc(S(=O)(=O)N2Cc3c(CN(C)C)nn(C)c3C2)cc1 | - | 15.84%
CC(C)(C)Oc1ccncc1NCc1cscn1 | -13.53% | 17.4%
COCc1cccc(NC(C)C(=O)N(C)Cc2cccc(F)c2)c1 (centres unmarked) | -22.52% | 10.78%
CCOC1COC2(CCN(Cc3cccc(C#N)c3)CC2)C1.O=C(O)C(F)(F)F (centres unmarked) | -5.189% | -
Cc1ccc(C(=O)N2[C@@H]3CC[C@H]2CN(C)C(=O)C3)c(=O)[nH]1 | - | 13.17%
O=C(c1cscn1)N1CCC2(CCN(Cc3nccs3)CC2)C1 | - | 12.64%
COCCN1C(=O)CC[C@@H]2[C@H]1CCN2C(=O)C1CCOCC1 | - | 7.268%
c1csc(CN2CCC3(CCOCC3COCC3CC3)CC2)n1 (centres unmarked) | - | 11.48%
CCc1nc2n(n1)CC(NCc1nnc(C(C)C)o1)CC2 (centres unmarked) | -22.53% | 7.669%
CCOCC(=O)N1C[C@H]2CC[C@@H]1CN(C(=O)c1ccncc1)C2 | - | 13.77%
Nc1ccnc(CNc2cc(F)ccc2OCC2CCCO2)n1 (centres unmarked) | -37.3% | 7.065%
CCCNC(=O)CNc1cc(C#N)ccc1OCC | 10.37% | 7.981%
[H][C@]12CC[C@]([H])(CN(C3CCOCC3)C1)N(C(=O)c1csc(NC)n1)C2 | -17.12% | -
CN(C)C(=O)COCc1nn(C)c2c1CCN(Cc1ccco1)C2 | - | 10.65%
CN(Cc1ccsc1)C(=O)Nc1cccc(N2CCOC2=O)c1 | 22.88% | 6.738%
CN1CC2(CCN(C(=O)Cc3ccc(O)c(F)c3)CC2)CC1=O | -7.158% | 7.754%
COCC1N(C(=O)c2ccc3c(c2)OCCCO3)[C@H]2CC[C@]1(O)CC2 (some centres unmarked) | - | 12.88%
Cc1cc(N(C)C)nc(C2COCCN2Cc2nccn2C)n1 (centres unmarked) | -16.07% | 12.26%
FC(F)(F)c1ccnc(N2CCCN(Cc3ccccn3)CC2)n1 | 43.6% | 8.889%
Cc1nonc1C(=O)N1CCc2c(ncn2CCc2ccccc2)C1 | -24.56% | 1.872%
[H][C@@]12CCN(C(=O)c3cnc(CC)nc3)C[C@@]([H])(CC1)N2C | -16.81% | -
CN(Cc1cnccn1)C(=O)c1ccc(CSc2nnc[nH]2)o1 | 0.2153% | 6.03%
CCN1C(=O)CC[C@@H]2[C@H]1CCN2S(=O)(=O)c1cccs1 | - | 9.444%
COc1ccc(-c2noc([C@@H]3C[C@@H](O)CN3C3CCN(C)CC3)n2)cc1 | 3.018% | 11.19%
CCc1cc(CN(C)C(=O)c2cnc3c(c2)nc(N)n3CC)on1 | 2.308% | 8.657%
CC(C)n1nc(CN2CCCC2=O)c2c1CN(C(=O)c1ccc[nH]1)C2 | 35.61% | 10.91%
CCN(C(c1ccc(OC)cc1)c1cccnc1)S(C)(=O)=O (centres unmarked) | 1.48% | 6.069%
CN1CCC(c2nnc3ccc(C(=O)N4CCCCC4)cn23)C1 (centres unmarked) | - | 1.748%
COc1ccc(CNC2CCC(O)CC2)cc1OCCCC#N (centres unmarked) | 14.74% | 15.32%
COCCCNC(=O)c1cc(-c2cnc(N(C)C)nc2)cn1CC1CC1 | - | -8.168%
CCS(=O)(=O)N1CCC2(CC1)CN(Cc1ccccn1)C(=O)CO2 | - | 5.579%
CC(C(=O)NC1CCCCC1)N1CCc2[nH]nc(C(F)(F)F)c2C1 (centres unmarked) | -7.596% | 13.19%
Cn1nc(C(=O)N2CCSCC2)cc1NC(=O)c1ccccc1 | 25.04% | 8.709%
CCN(CC)Cc1cc(C(=O)N2CCC3(CC2)NCCNC3=O)c(C)o1 | 6.631% | 6.407%
CNC(=O)[C@H]1C[C@H]2OCC[C@H]2N(Cc2ccc(C)o2)C1 | - | 15.69%
O=C(CN1CCCC(c2ccn[nH]2)C1)Nc1nc2c(s1)CCCC2 (centres unmarked) | 102.5% | 4.359%
COc1ccc(Cl)cc1CS(=O)(=O)CC(=O)NC(C)CCC(C)C (centres unmarked) | -7.395% | 7.258%
COCCC(=O)NCCn1nc(C2CCNC2)c2cccnc21 (centres unmarked) | - | 5.729%
CN(C)[C@@H]1CN(Cc2ccco2)C[C@@H]2CCCO[C@@H]21 | - | 13.3%
Cc1nc(C2CCN(C[C@H](C)CO)CC2)cc(N2CCOCC2)n1 | 13.67% | 17.03%
COc1c(CNCc2ccc(C(=O)NC3CC3)cc2)c(C)nn1C.Cl | -13.83% | -
CN(C)C(CNC(=O)c1cccc(-n2cnnn2)c1)c1ccccc1Cl (centres unmarked) | -3.559% | 3.448%
CC(C)(CN1CCC2(CCOCC2)CC1)N1CCOCC1 | -26.24% | 2.542%
O=C(Cc1csc(-c2ccco2)n1)N1CCN(c2nccs2)CC1 | 7.611% | 26.65%
O=C1COc2cc(C(=O)N3CCCC(n4cccn4)C3)ccc2N1 (centres unmarked) | -6.289% | 12.58%
CS(=O)(=O)N1C[C@@H](NC(=O)c2ccno2)[C@@H]2OCCC[C@@H]21 | - | 12.4%
COCCN1CCN(CCS(C)(=O)=O)CC1C (centres unmarked) | -13.47% | 6.145%
CN1CCC(CNC(=O)NCc2ccc(F)cc2)CC1 | 5.307% | 14.93%
CC(C)N(CC(N)=O)Cc1c(Cl)ccc2cccnc12 | -5.251% | 12.64%
CC(C)c1cc(NC(=O)CN2CCNC(=O)C2)on1 | 16.91% | 12.89%
c1ccc(C2CN(C3CC3)CC3(CCN(Cc4ncc[nH]4)CC3)C2)cc1 (centres unmarked) | -162.4% | 9.366%
CCc1ccccc1CN1CCN(Cc2ncc[nH]2)[C@H]2CS(=O)(=O)C[C@H]21 | - | 4.178%
COc1ccc(OCCN(C)C(=O)NC(C)c2nncn2C)cc1 (centres unmarked) | 3.276% | 8.392%
Cn1ccnc1CN1CCCC2(CCN(CC3CCCO3)CC2)C1 (centres unmarked) | - | 4%
COCCN1CCCn2c(nc(CNS(C)(=O)=O)cc2=O)C1.O=C(O)C(F)(F)F | 1.983% | -
Cc1nn(C(C)C)c(C)c1CN1CCN(C2CCCCC2)C(=O)C1 | - | 17.44%
COc1ccc([C@@H]2CN(C(=O)CCn3cccn3)C[C@H]2NC(C)=O)cc1 | -33.17% | -1.37%
COCCN1CCO[C@@H]2CN(C(=O)Cc3ccccc3)CC[C@@H]2C1 | - | 8.271%
O=C(NCCSCc1ccc(Br)s1)C1CCCN(C(=O)c2cccs2)C1 (centres unmarked) | 3.338% | 10.14%
Cl.Cl.Clc1cccc(C[C@@H]2NCCC[C@@H]2Nc2cccc(Cl)c2)c1 | 105.7% | -
CC(=O)N(Cc1ncc(C)o1)C1CCN(Cc2sc(C)nc2C)C1 (centres unmarked) | -5.935% | 22.65%
Cc1ccsc1-c1nccn1CCN1CCCOC1=O | 16.93% | 18.32%
Cc1nn(CC(C)C)c(N(C)C)c1CNCCC(=O)NC(C)C | 9.775% | 4.982%
O=C(c1ccccc1)N1CCOC2(CCN(Cc3cccs3)CC2)C1 | - | 3.361%

Source: ChEMBL document CHEMBL3988442, “University of Dundee, Small-Polar-MMV Screening Library” (2021).